Measurements taken from patent publication US20240344026A1, “Methods to Activate Gamma Delta T cells for Antibody Dependent Cellular Cytotoxicity” (Intellistem, Inc., priority 2023, published 2024).

Test system: Gamma Delta T cells
Assay: Percentage (purity) of Gamma Delta T cells by flow cytometry
Assay type: cell-based
Protocol: Cell counts and cell viability were established using a hemocytometer and the trypan blue exclusion method. Cell count and proliferation rate of Gamma Delta T cells was calculated on the basis of the cell number of the MNC and the percentage of Gamma Delta T cells on the MNC determined by flow cytometry.
MNC stimulated with the preferred protocol of the present invention consist mainly of Gamma Delta T cells (>90%) and further purification was generally not necessary. MNCs stimulated with R10F and Ko-Op consist mainly of γδ T cells, but especially after stimulation with R10F (prior art), also of αβ T cells and NK cells. If the product had too high a concentration of Alpha Beta T cells and NK cells to compare activity of Gamma Delta T cells cultivated in prior art or present invention mediums, Alpha Beta T cells and NKp46+ were depleted from stimulated MNC after 10 days of cultivation using the MidiMACS system and anti-TCR Alpha Beta and anti-NKp46 MicroBeads (all from Miltenyi Biotec, Bergisch Gladbach, Germany) according to manufacturer's instructions except using HSA (CSL Behring GmbH, Marburg, Germany) instead of BSA as part of the washing buffer.
For further testing, MNC were again isolated from healthy donors and cultivated with R10F (prior art) and a preferred embodiment of the present invention over 17 days.

[1] = changed stimulant vs standard protocol, zoledronate pulse or IL-15 instead of IL-2

Row | Molecule | proportion of Gamma Delta T cells (purity of the cell product) [1] | proportion of Gamma Delta T cells (purity of the cell product) (IL-15 instead of IL-2 combined with zoledronate pulse)
1 | O=P(O)(O)C(O)(Cn1ccnc1)P(=O)(O)O [zoledronate, reference compound] | significantly reduced | 
2 | IL-15: interleukin used at 10 ng/ml in place of IL-2 | significantly reduced | significantly reduced
